Experimental data reported in patent publication US20080318891A1, “Antisense oligonucleotides against thymidylate synthase” (priority 1998, published 2008).
For part of these data: At least one read-out could not be matched to a standard name with certainty. Some of these results come from one statement about several compounds together.

Columns and labels:
[1] = test system: A549 human non-small cell lung carcinoma; assay: Established A549 tumours in immunodeficient mice; format: in vivo
From the text: Tumor Chemotherapy: Rapidly proliferating A549 cells, grown in cell culture, were harvested and prepared for injection into mice to create tumor explants. Mice were mildly anaesthetized by inhalation (isoflurane), and injected subcutaneously (s.c.) in each of 2 sites in the flank region with 7.5×10^6 cells in […] matrigel (July, L V, et al., Molecular Cancer Therapeutics, 3 (3): 223-232, 2004; Nakayama, K, et al. Cancer Res, 65: 254-263, 2005). The doses of ODN 83 and pemetrexed were chosen so that they had not antitumor effect on their own. Starting on the day that tumors reached a volume of 200 mm^3 (on the order of 2.5 to 3 weeks), groups of 6 mice (except where indicated) were treated according to one of the following protocols: […]
Once a treatment protocol was initiated on a mouse because one of its tumors was 200 mm^3, the other tumor on that mouse was included in calculations if it was at least 100 mm^3 at the time of the first treatment. During the entire study, mice were weighed regularly and monitored for healthy appearance and activity. […]

[2] = test system: three mesothelioma cell lines; assay: Proliferation assay, ODN combined with chemotherapeutic agents, Example 9

| Molecule | Tumors increased in volume by 300% or more over the 50-day period ([1]; single agent (ODN alone; 50 mg/kg pemetrexed alone)) | Tumors increased in volume by 300% or more over the 50-day period ([1]; ODN plus 50 mg/kg pemetrexed) | Effect on Alimta IC50 / cytotoxicity [2] |
| --- | --- | --- | --- |
| Nc1nc2[nH]cc(CCc3ccc(C(=O)N[C@@H](CCC(=O)O)C(=O)O)cc3)c2c(=O)[nH]1 [pemetrexed, reference compound] | 40-50% | – | – |
| ODN 32: scrambled control, randomised sequence of ODN 83, 5′-ATGCGCCAACGGTTCCTAAA-3′ (all phosphorothioate, sugars by position and methylation of C not given here; further chemistry not fully specified) [reference compound] | – | 40-50% | no effect |
